Data on one compound can be found in US20050272814A1, “Medicine for prevention or treatment of diabetes” (priority 2004, published 2005).

Each structure is given as a SMILES string.

For this assay, the system named is C57BL/KsJdb/db mice. Briefly: Hypoglycemic effect of single or combined administration in db/db mice (plasma glucose on day 14). The assay is classed as in vivo, mouse. As for the experimental part: As test animals, C57BL/KsJdb/db mice were used, which were created in Jackson Laboratory (USA) and known as an obesity, hyperlipemia, hyperinsulinemia, and insulin-resistant model (Journal of Clinical Investigation, 85, pp 962-967, 1990). Blood was collected from the orbital venous plexus of each 7-week-old db/db mouse using a heparin-treated capillary tube, and centrifugation was performed to collect plasma. Thereafter, the plasma glucose concentration (Glucose CII-Test Wako (Wako Pure Chemical Industries, Ltd.)), the insulin concentration (Lebis Insulin Kit: for mouse-T (SHIBAYAGI)), and the triglyceride concentration (Triglyceride E-Test Wako (Wako Pure Chemical Industries, Ltd.)) were measured for classification. The classification was performed so that distribution of each measurement item is uniform for each group by block allocation based on many variables in which the plasma glucose concentration is most emphasized using the measured values of the plasma glucose concentration, the body weight, the insulin concentration, and the triglyceride concentration. […] Two hours after the administration of the medicines on the 14th day from the beginning day of the administration, blood was collected from the orbital venous plexus, and the plasma thereof was collected to measure the plasma glucose concentration. […] Each plasma glucose concentration is expressed as mean±standard deviation for 6 mice of each group. Each decreasing rate is calculated from ((mean of plasma glucose concentration of control group)−(mean of plasma glucose concentration of each group))/(mean of plasma glucose concentration of control group)×100, while each relative index is calculated from (mean of plasma glucose concentration of each group)/(mean of plasma glucose concentration of control group).

Turning to `CN(C)C(=N)NC(=N)N.Cl` [Metformin, 1,1-Dimethylbiguanide hydrochloride], where the note is “300 mg/kg oral once a day for 14 days, mean plasma glucose of group / control group”, the Relative index is given as 0.97. Besides, the Plasma glucose concentration (300 mg/kg oral once a day for 14 days, plasma 2 h after dosing on day 14, mean ± SD, 6 mice) amounted to 264 ± 110 mg/dL. In addition, for the setting “single administration 300 mg/kg, 14 days, compared with normal db/+m mouse level (187±16)”, the “Decreasing effect for the plasma glucose concentration (in words)” value is listed as “insufficient”.
